# Test results from PubChem BioAssay AID504444 (National Center for Advancing Translational Sciences (NCATS), 2011).
# About 7,500 (2.1%) of roughly 360,000 compounds were called active. The inconclusive results got no clear call from the source; some entries with a clear call stand among them for comparison. The call rests on the fitted dose curve; in most records, active means well fitted inhibition curve with a large enough effect; inconclusive means small, poorly fitted or top-dose-only effect, or effect the other way; inactive means flat fitted curve, though single readings scatter. Potencies beside an inconclusive call are fits to weak or partial responses and may not hold up.
# Experiment: Nrf2 qHTS screen for inhibitors; further: nearly all actives have a fitted effect of over 60% in size
# Conditions: A549 ARE-Fluc reporter, luciferase luminescence, 18-24 h; series mostly up to 46 µM
# Summary of the method: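 Nrf2 activity is the BugLite luminescence, read 15 min after reagent at room temperature, following CellTiter-Fluor cytotoxicity readout (30 min, 37C). Compound titrations were applied for 18-24 h to 5000 A549 ARE_Fluc cells/well in 5% FBS OPTI-MEM.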
# Potency means the concentration at half of the fitted maximal effect.
row,Compound,Potency
1,Cc1cccc2c1-c1sc(C(=O)N(C)c3cccc(C(F)(F)F)c3)cc1CO2,"inconclusive: 29.1 µM [falling, single point]"
2,CCCCCCSc1nsc(NC(=O)CC(C)C)n1,"inconclusive: 0.291 µM [falling, full curve]"
3,O=C(Nc1ccc(Cl)c(S(=O)(=O)N2CCOCC2)c1)c1ccc2c(c1)OCCO2,"inconclusive: 23.1 µM [falling, single point]"
4,Cc1csc2nc(COc3ccccc3NC(=O)c3ccc(C(C)(C)C)cc3)cc(=O)n12,inactive
5,Cc1nn(CC(=O)NCc2cccc3ccccc23)c(=O)c2ccccc12,"inconclusive: 32.6 µM [falling, single point]"
6,CCc1ccc(C(=O)Cn2ncc(Cl)c(Cl)c2=O)cc1,inactive
7,O=C(Nc1ccc(N2CCOCC2)cc1N1CCOCC1)c1ncoc1-c1cccc(F)c1,"inconclusive: 20.6 µM [falling, partial curve, poor fit]"
8,Cc1cccc(CNC(=O)CCCn2c(=O)c3cccn3c3ccc(F)cc32)c1,"inconclusive: 29.1 µM [activator, single point]"
9,CSc1ccc(CN(C)CC(=O)Nc2ccccc2C(=O)NC2CC2)cc1,"inconclusive: 9.2 µM [falling, partial curve, poor fit]"
10,O=C(c1ccccc1)c1ccc2nc(-c3ccc(NC(=O)c4ccccc4F)cc3)[nH]c2c1,active: 10.3 µM
11,Cc1cc(C(=O)Nc2cccc(S(=O)(=O)N3CCCCC3)c2)c2ccccc2n1,"inconclusive: 23.1 µM [falling, partial curve, poor fit]"
12,Cn1c(C(=O)Nc2ccc3c(c2)OCO3)cc2c(=O)n(C)c3ccccc3c21,"inconclusive: 1.84 µM [falling, full curve]"
13,CCN(c1ccccc1)S(=O)(=O)c1ccc(Cl)c(NC(=O)CNCc2ccccc2OC)c1,"inconclusive: 29.1 µM [falling, single point]"
14,CCCCOc1ccc(C(=O)NCC2(c3ccc(OC)cc3)CCOCC2)cc1,"inconclusive: 14.6 µM [falling, partial curve, poor fit]"
15,Cc1ccc(C(=O)Nc2ccc(-c3nc4ccccc4s3)cc2C)cc1C,"inconclusive: 1.03 µM [activator, partial curve]"
16,C=CCn1c(SCc2cc(=O)n3ccsc3n2)nc2scc(C3CC3)c2c1=O,"inconclusive: 25.9 µM [falling, single point]"
17,CC(=O)N=c1scc(-c2ccccc2)n1-c1cccc(O)c1,"inconclusive: 18.4 µM [falling, single point]"
18,COc1ccc2nc(NN=C(C)c3ccccn3)cc(C)c2c1,"inconclusive: 5.8 µM [falling, full curve]"
19,COc1ccc(-n2c(Cn3c(=O)sc4ccccc43)nnc2SCC(=O)N2CCCCC2)cc1,"inconclusive: 29.1 µM [falling, single point]"
20,Nc1nc(-c2ccccc2Br)cs1,"inconclusive: 16.4 µM [activator, partial curve, poor fit]"
21,CC(/C=C/c1ccccc1)=N\Nc1ccccc1[N+](=O)[O-],"inconclusive: 7.31 µM [activator, partial curve]"
22,c1ccc2c(c1)nnn2CNc1nccs1,"inconclusive: 0.411 µM [activator, full curve]"

# 6 records drawn at random from those above, as already listed:
row,Compound,Potency
20,Nc1nc(-c2ccccc2Br)cs1,"inconclusive: 16.4 µM [activator, partial curve, poor fit]"
15,Cc1ccc(C(=O)Nc2ccc(-c3nc4ccccc4s3)cc2C)cc1C,"inconclusive: 1.03 µM [activator, partial curve]"
9,CSc1ccc(CN(C)CC(=O)Nc2ccccc2C(=O)NC2CC2)cc1,"inconclusive: 9.2 µM [falling, partial curve, poor fit]"
1,Cc1cccc2c1-c1sc(C(=O)N(C)c3cccc(C(F)(F)F)c3)cc1CO2,"inconclusive: 29.1 µM [falling, single point]"
2,CCCCCCSc1nsc(NC(=O)CC(C)C)n1,"inconclusive: 0.291 µM [falling, full curve]"
22,c1ccc2c(c1)nnn2CNc1nccs1,"inconclusive: 0.411 µM [activator, full curve]"

# Further records

row,Compound,Potency
1,O=[N+]([O-])c1ccc(Cc2nnc(-c3ccccc3Cl)o2)cc1,"inconclusive: 16.4 µM [falling, partial curve, poor fit]"
2,COc1ccc2oc3cc(C)[n+]([O-])c(-c4ccc(Br)cc4)c3c2c1,active: 23.1 µM
3,Cc1csc(NC(=O)CSc2nc(C(C)C)nc3c2c(=O)n(C)c(=O)n3C)n1,"inconclusive: 29.1 µM [falling, single point]"
4,COc1cccc(NC(=O)Cc2ccccc2)c1,"inconclusive: 10.3 µM [activator, partial curve]"
5,COc1ccccc1NC(=O)c1ccccc1C(=O)N(C)Cc1ccccc1,"inconclusive: 6.51 µM [falling, single point]"
6,O=[N+]([O-])c1ccc2c(c1)nc1n2CCN(C2CCCCC2)C1,"inconclusive: 7.31 µM [activator, partial curve]"
7,COC(=O)c1cccc(Nc2cc(C)nc(-c3ccccc3O)n2)c1,"inconclusive: 29.1 µM [falling, partial curve, poor fit]"
8,O=C1/C(=C/c2ccc(F)cc2)SC(=S)N1CCCC(=O)N1CCCCC1CCO (stereo not given),"inconclusive: 16.4 µM [falling, single point]"
9,O=C(O)C1Nc2ccc(Br)cc2C2C=CCC12 (stereo not given),inactive
10,CC(=O)c1c(C)[nH]c(C(=O)Nc2nccs2)c1C,"inconclusive: 6.51 µM [activator, full curve]"
11,CC(=O)N1N=C(c2ccc(C)o2)CC1c1ccc(Br)cc1 (stereo not given),"inconclusive: 2.91 µM [activator, full curve]"
12,CCN(CC)C(=O)C1CCN(S(=O)(=O)c2ccc3oc4ccccc4c3c2)CC1,active: 20.6 µM
13,CCC(=O)N1c2ccccc2[C@@H](N(C(C)=O)c2ccccc2)C[C@H]1C,"inconclusive: 0.146 µM [activator, full curve, poor fit]"
14,CC(=O)N1c2ccc(S(=O)(=O)N3CCCC(C(=O)Nc4ccc(F)cc4)C3)cc2CC1C (stereo not given),active: 18.4 µM
15,COc1ccc(-c2[nH]c(-c3cccc(OC)c3)nc2SCC(=O)NC2CCCC2)cc1,inactive
16,CC1(C)OC2OC(C(=O)N/N=C/c3ccccc3F)C3OC(C)(C)OC3C2O1 (stereo not given),inactive
17,CCCc1cc(C(=O)Nc2c(C)nn(Cc3c(Cl)cccc3Cl)c2C)no1,"inconclusive: 29.1 µM [falling, single point]"
18,O=C(Nc1ccncc1)c1cc(S(=O)(=O)N2CCCCC2)ccc1Cl,"inconclusive: 20.6 µM [falling, single point]"
19,O=C(C#Cc1ccccc1)c1ccc([N+](=O)[O-])cc1,inactive
20,CC(C)(C)NC(=O)Cn1nnc(-c2ccccc2Cl)n1,"inconclusive: 5.8 µM [activator, partial curve]"
21,CC1CCCN(c2c([N+](=O)[O-])cc(C(=O)O)cc2[N+](=O)[O-])C1 (stereo not given),"inconclusive: 18.4 µM [falling, single point]"
22,Cc1cccc(C(=O)NC(=S)NNC(=O)c2ccccc2Cl)c1,"inconclusive: 32.6 µM [falling, single point]"

row,Compound,Potency
1,COc1cc(C(=O)Nc2ccc(S(=O)(=O)NC(C)C)cc2)cc(OC)c1OC,"inconclusive: 20.6 µM [falling, partial curve, poor fit]"
2,NC(=O)c1c(NC(NC(=O)c2ccco2)C(=O)c2ccc(Cl)cc2)sc2c1CCCC2 (stereo not given),"inconclusive: 23.1 µM [falling, single point]"
3,CC(=O)Nc1cccc(NC(=O)C(=O)NCC(c2ccco2)N2CCc3ccccc3C2)c1 (stereo not given),"inconclusive: 20.6 µM [falling, single point]"
4,Cc1ccc(S(=O)(=O)N2CCOCC2)cc1C(=O)Nc1nc(-c2ccccn2)cs1,active: 9.2 µM
5,CC(=O)Nc1ccc2nc(SCCOc3cc(C)cc(C)c3)sc2c1,"inconclusive: 7.31 µM [falling, partial curve]"
6,COc1cc(OC)c(/C=C2\SC(=O)N(CC(=O)Nc3ccccc3F)C2=O)c(OC)c1,"inconclusive: 29.1 µM [falling, single point]"
7,CC(=O)N1c2ccc(S(=O)(=O)NCC3CCC(C(=O)Nc4cc(C)ccc4C)CC3)cc2CC1C (stereo not given),"inconclusive: 16.4 µM [falling, single point]"
8,CCCCn1c(N)c(N(CC(C)C)C(=O)Cc2ccc3c(c2)OCCO3)c(=O)[nH]c1=O,inactive
9,c1ccc(-c2cn(-c3ccccc3)c3[n+]2CCS3)cc1,"inconclusive: 8.2 µM [falling, partial curve]"
10,CCOc1ccc(C(=O)N(CC)CC(=O)Nc2ccc3c(c2)OCCO3)cc1,"inconclusive: 20.6 µM [activator, partial curve]"
11,CC(C)CCN(C(=O)CCSc1ccc(F)cc1)c1c(N)n(Cc2ccccc2)c(=O)[nH]c1=O,inactive
12,O=C(CN1CCN(c2ccccc2O)CC1)NC(c1ccccc1)c1ccccc1,inactive
13,CCOc1ccc(C(=O)Nc2nc3ccccc3[nH]2)cc1OCC,active: 10.3 µM
14,CSc1ccc(/C=c2\s/c(=C\C(=O)C(C)(C)C)n(CC(=O)NCCC3=CCCCC3)c2=O)cc1,inactive
15,CCOC(=O)/C(=N/Nc1ccc(Br)cc1)N1CC(C)OC(C)C1 (stereo not given),"inconclusive: 9.2 µM [falling, partial curve, poor fit]"
16,CCOc1ccc(OCc2ccc(C(=O)NCc3ccncc3)o2)cc1,"inconclusive: 6.51 µM [activator, single point]"
17,CCCCN(C(=O)Cc1ccc(S(=O)(=O)N2CCOCC2)s1)c1c(N)n(CCCC)c(=O)[nH]c1=O,inactive
18,COc1ccc(C(=O)NNC(=S)NC(=O)c2cccnc2)cc1,"inconclusive: 18.4 µM [falling, single point]"
19,CC(C)(C)OC(=O)N1CCC(c2c(C(=O)NCCc3ccccc3)cnn2-c2ccc(F)cc2)CC1,"inconclusive: 1.64 µM [activator, partial curve, poor fit]"
20,CCOCCCn1c(SCC(=O)Nc2cc(OC)ccc2OC)nc2ccccc2c1=O,"inconclusive: 11.6 µM [falling, partial curve, poor fit]"
21,Cc1cc(NC(=O)c2ccc(C)c(C)c2)no1,"inconclusive: 6.51 µM [activator, single point]"
